Some of the results follow. Most values come without repeats; read them as rough.
tested on: Neuro-2a; assay: neurite formation score, plate-normalized to DMSO control mean 5.04 (score (0-8 scale)); higher = more or longer neurites; settings: 10 µM

Row | Structure (SMILES) | neurite formation score
1 | Cn1c(=O)n(-c2ccc(C(C)(C)C#N)cc2)c2c3cc(-c4cnc5ccccc5c4)ccc3ncc21 | 3.85
2 | COc1cc2nccc(Oc3ccc(NC(=O)NC4CC4)c(Cl)c3)c2cc1C(N)=O [Lenvatinib (E7080)] | 3.21
3 | O=C(Nc1ccc(OC(F)(F)F)cc1)c1sccc1NCc1ccnc2ccccc12 | 0.543
4 | COc1cc2ncnc(Nc3cccc(Cl)c3F)c2cc1OC(=O)N1CCN(C)C[C@H]1C | 3.86
5 | N#C/C(=C(/N)Sc1ccc(N)cc1)c1ccccc1C(F)(F)F | 4.54
6 | CCN1C(=CC(C)=O)Sc2ccc(OC)cc21 | 4.76
7 | O=C(NCCO)c1cccc(-c2cc(Nc3ccc(OC(F)(F)F)cc3)ncn2)c1 | 6.76
8 | COc1cc2ncnc(Nc3ccc(O)c(Br)c3)c2cc1OC | 2.76
9 | O=C1NC(=O)/C(=C/c2ccc3nccc(-c4ccncc4)c3c2)S1 | 1.42
10 | COc1ccc(CNc2nc(N(CCO)CCO)nc3c2ncn3C(C)C)cc1 | 4.88
11 | Cc1cc(C)c(/C=C2\C(=O)Nc3ccccc32)[nH]1 | 3.74
12 | CN(C)C/C=C/C(=O)Nc1cc2c(Nc3ccc(F)c(Cl)c3)ncnc2cc1O[C@H]1CCOC1 [Afatinib dimaleate] | 2.54
13 | CC1(COc2ccc3c(c2)ncn3-c2ccc3cccc(N4CCC(N)CC4)c3n2)COC1 | 5.19
14 | COc1cc(F)c(F)c(Nc2ccc(I)cc2F)c1NS(=O)(=O)C1(C[C@H](O)CO)CC1 [Refametinib] | 2.76
15 | O=c1cc(-c2cccc3c2Sc2ccccc2S3)oc(N2CCOCC2)c1 | 2.08
16 | Cc1c(F)cc(C(=O)NC2CC2)cc1-c1ccc(C(=O)NCC(C)(C)C)cn1 [Losmapimod] | 4.52
17 | O=C(Nc1ccc(-c2ccnc(Nc3ccc(N4CCOCC4)cc3)n2)cc1)C1CCCN1 (centres undefined) | 3.74
18 | Cc1nc(Nc2cnn(C3CCNCC3)c2)nc2c1N(C)C(=O)c1cc3ccccc3cc1N2C | 1.09
19 | O=C(c1ccc(/C=C/c2n[nH]c3ccccc23)cc1)N1CCNCC1 | 5.08
20 | COc1ccc(S(=O)(=O)N(CCO)c2ccccc2CN(C)C/C=C/c2ccc(Cl)cc2)cc1 [KN-93 Phosphate] | 4.19

Row | Structure (SMILES) | neurite formation score
21 | CCN(CCO)CCCOc1ccc2c(Nc3cc(CC(=O)Nc4cccc(F)c4)[nH]n3)ncnc2c1 [Barasertib (AZD1152-HQPA)] | 4.08
22 | CCCCCCCCCCCCCCCCCCOP(=O)([O-])OC1CC[N+](C)(C)CC1 [Perifosine] | -0.147
23 | CC(C)(C)c1cnc(CSc2cnc(NC(=O)C3CCNCC3)s2)o1 | 6.21
24 | N#C/C(=C\c1ccc(O)c(O)c1)C(=O)NCc1ccccc1 | 2.74
25 | CN(c1ccccc1CNc1nc(Nc2ccc3c(c2)CC(=O)N3)ncc1C(F)(F)F)S(C)(=O)=O | 1.43
26 | Cc1cnc(NC(=O)Nc2cc(Br)c(C)cc2OC[C@@H]2CNCCO2)cn1 | 1.76
27 | COc1ccc(S(=O)(=O)N(C(C)=O)c2ccccc2/C=C/c2cc[n+]([O-])cc2)cc1 | 0.853
28 | O=C(O)[C@]1(Cc2cccc(Nc3nccs3)n2)CC[C@@H](Oc2cccc(Cl)c2F)CC1 | 0.41
29 | CC(C)N(CCC(=O)c1ccc2ccccc2c1)Cc1ccccc1 | 4.41
30 | CN1CCC(CNc2ccc3ncc(-c4cccc(OC(F)(F)F)c4)n3n2)CC1 [SGI-1776 free base] | -0.256
31 | COc1cc(CCc2cc(NC(=O)c3ccc(N4CC(C)NC(C)C4)cc3)n[nH]2)cc(OC)c1 (centres undefined) | 0.519
32 | CNC(=O)c1cc(Oc2ccc(NC(=O)Nc3ccc(Cl)c(C(F)(F)F)c3)c(F)c2)ccn1 [Regorafenib monohydrate] | 3.08
33 | CN1CCC(COc2cnc(-c3cccc(Cn4nc(-c5cccc(C#N)c5)ccc4=O)c3)nc2)CC1 | -0.256
34 | NC(=O)Nc1cc(-c2cccc(F)c2)sc1C(=O)N[C@H]1CCCNC1 | 2.52
35 | S=C(NCc1ccc2c(c1)OCO2)N1CCN(c2ncnc3c2oc2ccccc23)CC1 [Amuvatinib (MP-470, HPK 56)] | 2.41
36 | COc1ccc(-c2ccc3c(N4CCOCC4)nc(N4C[C@@H](C)O[C@@H](C)C4)nc3n2)cc1CO | 3.08
37 | Cc1cc(O)c2c(c1)C(=O)c1cccc(O)c1C2=O [Chrysophanol] | 3.42
38 | NCC(=O)Nc1ccc(-n2nc(C(F)(F)F)cc2-c2ccc3c(ccc4ccccc43)c2)cc1 | 3.88
39 | NC(=O)c1cnc(N[C@@H]2CCCC[C@@H]2N)nc1Nc1cccc(-n2nccn2)c1 | 0.41

From compound 38 as far as 39, copied from above:
Row | Structure (SMILES) | neurite formation score
38 | NCC(=O)Nc1ccc(-n2nc(C(F)(F)F)cc2-c2ccc3c(ccc4ccccc43)c2)cc1 | 3.88
39 | NC(=O)c1cnc(N[C@@H]2CCCC[C@@H]2N)nc1Nc1cccc(-n2nccn2)c1 | 0.41
